Measurements: PubChem BioAssay AID2685 (National Center for Advancing Translational Sciences (NCATS), 2010)
Where “and” joins values, the source holds several entries; their conditions need not be identical. Equal values may be shown once. The list shows a part of the results. The main result of the screen is listed elsewhere. These columns were measured beside it and carry no call. The list favours compounds with an active or inconclusive main result. Potencies come from curve fits of mixed quality, noted in brackets.

Test: qHTS Assay for Lipid Storage Modulators in Drosophila S3 Cells;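 on cell number change: cells counted by Cell Tracker Red CMTPX staining in the red channel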
Details: BODIPY lipid droplet fluorescence, 18-24 h; for cell number change: measured here: cell count max response, cells fed with added oleic acid
Outline: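 Laser-scanning cytometry quantifies lipid droplet accumulation (500–530 nm total intensity; droplet/cell object ratio) in oleic acid-fed (400 uM added) Drosophila S3 cells treated with a concentration series. 20 uM Triacsin C defined 100% inhibition.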

[1] = measured here: lipid fluorescence (Fed channel) AC50, cells fed with added oleic acid
[2] = measured here: cell number channel AC50, cells fed with added oleic acid

Structure (SMILES) | cell number change | AC50 [1] | AC50 [2]
O=C(/C=C/c1cccs1)NNC(=O)c1ccccc1 | 1.91% | 0.103 µM [rising, full curve, poor fit] | –
CCOc1ccc2[nH]c3c(=O)n(CCc4ccc(OC)cc4)cnc3c2c1 | 5.7% | 0.82 µM [rising, partial curve] | –
Cc1c(Cl)cccc1Nc1nc(N)nc(CN2CCc3ccccc3C2)n1 | 30.3% | 0.103 µM [rising, full curve] | 0.0517 µM [rising, full curve, poor fit]
COc1cccc(NC(=O)C(C)C)c1 | -26.5% | – | 1.3 µM [falling, full curve, poor fit]
COc1ccc(C(=O)Nn2c(SCc3cccc([N+](=O)[O-])c3)nc3ccccc3c2=O)cc1 | 4.28% | 29.1 µM [falling, single point] | –
CCCC(=O)Nc1ccc2c(c1)nc1n2CCSC1 | 12.9% | 0.00517 µM [rising, full curve, poor fit] | –
CC(C)(C)c1ccc(C(=O)c2c[nH]c(C(=O)NCc3cccs3)c2)cc1 | -49.6% | – | 32.6 µM [falling, single point]
CCOc1cc(/C=N\NC(=O)CN2CCOCC2)ccc1OCc1ccc(F)cc1 | -50% | – | 18.4 µM [falling, single point]
O=C(O)c1c[nH]c2c(C(F)(F)F)cccc2c1=O | 12.9% | 29.1 µM [falling, partial curve] | –
Cc1coc2c(C)c3oc(=O)c(CCC(=O)NCCCN4CCOCC4)c(C)c3cc12 | 2.91% | 29.1 µM [falling, single point] | –
S=C(Nc1ccccc1Cl)NC1CCCCCC1 | -15.7% | – | 0.00461 µM [falling, full curve, poor fit]
COC(=O)/C(C(C)=O)=C(\C=C\N(C)C)N(C)C | -81.3% | – | 23.1 µM [falling, partial curve, poor fit]
COC(C[C@H]1O[C@H]1[C@@H](O)[C@@H](C)OCc1ccccc1)OC | 10.8% | 6.51 µM [rising, single point] | –
O=C(c1oc(=O)c2ccccc2c1-c1ccccc1)N1CCN(C2CCCCC2)CC1 | 30.4% | – | 6.51 µM [rising, single point]
Cc1c(CC(=O)NCC(=O)NCC(=O)O)c(=O)oc2c(C)c3oc4c(c3cc12)CCCC4 | -1.8% | 5.8 µM [rising, full curve] | –
Cc1ccc(C)c(S(=O)(=O)N2CCN(c3nc(-c4cccnc4)nc4ccccc34)CC2)c1 | -2.49% | 16.4 µM [falling, single point] | –
CCOC(=O)c1ccc2c(c1)n(CC)c(/C=C/N(C)c1ccccc1)[n+]2CC | -35% | 20.6 µM [falling, partial curve] | 13 µM [falling, single point]
COc1ccc(Nc2nc(NCc3ccco3)nc(N)c2[N+](=O)[O-])cc1 | 17.4% | 6.51 µM [falling, single point] | 6.51 µM [falling, single point]
CCC(NC(=O)CN1CCN(C(=O)c2cccs2)CC1)c1ccc(C)cc1 (stereo not drawn) | 3.63% | 0.731 µM [falling, single point] | –
O=[N+]([O-])c1cccc(S(=O)(=O)N2CCCCCC2)c1 | 59% | 6.51 µM [rising, single point] | 25.9 µM [rising, single point]

Structure (SMILES) | cell number change | AC50 [1] | AC50 [2]
Cc1cc(NC(=O)CN(C)CC(=O)Nc2ccc(F)c(F)c2F)no1 | 2.02% | 20.6 µM [falling, single point] | –
COc1cc(C(=S)N2CCOCC2)cc(OC)c1OC(=O)Cc1ccc(F)cc1 | -50% | – | 8.2 µM [falling, partial curve]
O=C(NCCCn1ccnc1)c1cccc(S(=O)(=O)Nc2ccc(Br)cc2)c1 | -8.43% | 13 µM [falling, partial curve, poor fit] | 0.0291 µM [falling, full curve, poor fit]
C=C(C)COc1ccc(-c2[nH]ncc2Oc2ccccc2OC)c(O)c1 | -55.8% | 23.1 µM [falling, partial curve] | 13 µM [falling, partial curve]
CCCCn1nc(C(=O)Nc2ccc(-n3cnnn3)cc2)c2ccccc2c1=O | 25.3% | 16.4 µM [rising, partial curve] | 0.164 µM [rising, full curve, poor fit]
CC1(C)O[C@@H]2[C@H](O1)[C@@H](CO)O[C@H]2n1cnc2c(=O)[nH]cnc21 | 6.88% | 1.03 µM [falling, partial curve] | 2.91 µM [falling, single point]
Cc1ccc(-c2ccc(CCC(=O)O)n2-c2cccc(C(=O)O)c2)cc1 | -4.26% | 0.58 µM [falling, single point] | –
CCCNC(=O)N[C@@H](CCSC)C(=O)OC | -33.5% | – | 0.651 µM [falling, full curve]
COc1ccccc1C(=O)NCC(=O)Nc1ccc2c(c1)CCC2 | -16% | 5.8 µM [rising, full curve, poor fit] | –
C/C(=N\NC(=O)c1ccccc1O)c1ccc(NC(=O)Cc2ccccc2)cc1 | -4.82% | – | –
C=CCNc1ncnc2ccc(Br)cc12 | -36.2% | 32.6 µM [falling, single point] | 0.92 µM [falling, full curve, poor fit]
O=C(N/N=C/c1ccccc1OCc1ccccc1)c1cccnc1 | -50% | 8.2 µM [rising, partial curve, poor fit] | 1.16 µM [falling, full curve]
O=C(Nc1ccccc1Cl)c1cc(S(=O)(=O)N2CCCC(C(=O)O)C2)ccc1F (stereo not drawn) | 39.9% | – | –
O=C(Nc1cc(N2CCOCC2)ncn1)c1ccccc1 | -32.1% | – | 1.46 µM [falling, partial curve]
COc1ccc(C2NC(=O)c3ccccc3N2)cc1 (stereo not drawn) | -55.2% | 10.3 µM [falling, partial curve] | 13 µM [falling, partial curve]
COc1ccc(S(=O)(=O)N2CCN3CCCC3C2)cc1 (stereo not drawn) | 8.81% | – | –
CCCCn1cnc2c1c(=O)[nH]c(=O)n2CCCC | 47.8% | – | 25.9 µM [rising, single point]
O=C(Nc1ccc(OCC(=O)N2CCOCC2)cc1)c1ccccc1F | 5.65% | – | –
COc1cc(C)ccc1Oc1ncnc(N)c1[N+](=O)[O-] | 16.1% | – | –
C=CCn1c(SCC(=O)Nc2cc(C)ccc2OC)nnc1-c1ccco1 | 3.14% | 0.00517 µM [rising, full curve, poor fit] | –

Single records, as listed above.
C/C(=N\NC(=O)c1ccccc1O)c1ccc(NC(=O)Cc2ccccc2)cc1 reads cell number change: -4.82%
CCCCn1nc(C(=O)Nc2ccc(-n3cnnn3)cc2)c2ccccc2c1=O reads cell number change: 25.3%; AC50 [1]: 16.4 µM [rising, partial curve]; AC50 [2]: 0.164 µM [rising, full curve, poor fit]
COc1ccccc1C(=O)NCC(=O)Nc1ccc2c(c1)CCC2 reads cell number change: -16%; AC50 [1]: 5.8 µM [rising, full curve, poor fit]
O=C(NCCCn1ccnc1)c1cccc(S(=O)(=O)Nc2ccc(Br)cc2)c1 reads cell number change: -8.43%; AC50 [1]: 13 µM [falling, partial curve, poor fit]; AC50 [2]: 0.0291 µM [falling, full curve, poor fit]

(cont.)

Structure (SMILES) | cell number change | AC50 [1] | AC50 [2]
COc1ccc(NC(=O)c2ccc(Cl)c(S(=O)(=O)NCC3CCCO3)c2)c(OC)c1 (stereo not drawn) | -41.6% | – | 14.6 µM [falling, single point]
CCSc1nnc([C@H](Cc2ccccc2)NC(=O)OC(C)(C)C)o1 | 16.7% | 6.51 µM [falling, single point] | –
O=[N+]([O-])c1ccc(-c2nc(NCc3cccnc3)c3ccccc3n2)cc1 | -66.2% | 9.2 µM [falling, partial curve] | 10.3 µM [falling, partial curve]
Cn1nnc(NC(=O)c2ccco2)n1 | 81.2% | – | –
COc1cc2c(cc1NC(=O)CN1C(=O)NC3(CCc4ccccc43)C1=O)oc1ccccc12 (stereo not drawn) | 30.7% | 4.11 µM [rising, single point] | 3.26 µM [rising, full curve, poor fit]
O=C(Nc1cccc(C(=O)O)c1)/C(=C\c1ccco1)NC(=O)c1ccc(Br)o1 | 4.35% | – | –
COc1ccc(NC(=O)CNS(=O)(=O)c2ccc(Cl)cc2)cc1 | -22.3% | 29.1 µM [falling, single point] | –
CCNC(=S)N1CCN(CC)CC1 | -1.58% | – | –
C=CCn1c(=O)/c(=C2/SC(C)=C(C)N2CC)s/c1=C1/C(=O)N(CC)C(=S)N1c1ccccc1 | 36.9% | 3.66 µM [rising, partial curve] | 2.06 µM [rising, full curve]
C=C(NC(C)=O)c1c(F)cccc1F | 7.34% | 3.26 µM [rising, partial curve] | –
O=c1c2cc(Br)ccc2nc(-c2ccc([N+](=O)[O-])cc2)n1O | -34% | – | –
CCN1C(=NCC(C)C)N[C@@H](c2cccc(F)c2)C(C(=O)OC)=C1C | -0.898% and 24.4% | 0.58 µM [falling, full curve] | –
O=C(c1ccc(CS(=O)(=O)c2c(Cl)cccc2Cl)o1)N1CCCC1 | 8.13% | 4.11 µM [rising, partial curve] | –
Cc1ccc(C(=O)C2CCNCC2)cc1 | -10.7% | – | –
O=C(Cc1ccc(F)cc1)N/N=C/c1ccccn1 | -2.09% | 0.164 µM [rising, full curve, poor fit] | –
CCC(C)c1ccc(OCC(=O)O)cc1 (stereo not drawn) | -184% | – | 23.1 µM [falling, partial curve]
CSc1ncc(C(=O)Nc2cccc(S(N)(=O)=O)c2)n1-c1ccccc1 | 11.7% | 13 µM [rising, partial curve] | –
O=C(Nc1ccc(CN2CCS(=O)(=O)CC2)cc1)c1ccc(F)cc1 | -18.6% | 0.82 µM [falling, full curve] | 0.461 µM [falling, full curve, poor fit]
O=C(NCCc1ccccc1)c1cc(-c2ccc3c(c2)OCO3)on1 | 32.1% | – | –
CCOC(=O)c1c(NC(=O)Nc2ccccc2)sc(C)c1C | -15.9% | – | –
